Laboratory results published in paper PMC12501420, “Small DUF1127 proteins regulate bacterial phosphate metabolism through protein–protein interactions with the sensor kinase PhoR” (microLife, 2025).
Results are given in words; binding and its absence hold for the method and conditions named. Some results given as binding are weak or reduced against the parent protein; the word gives no strength. Tags and fused reporters may be left off the sequences shown.

Molecular target: T1, PhoR from E. coli, bacterial two-hybrid fusion (E. coli) (UniProt P08400)
T1 sequence: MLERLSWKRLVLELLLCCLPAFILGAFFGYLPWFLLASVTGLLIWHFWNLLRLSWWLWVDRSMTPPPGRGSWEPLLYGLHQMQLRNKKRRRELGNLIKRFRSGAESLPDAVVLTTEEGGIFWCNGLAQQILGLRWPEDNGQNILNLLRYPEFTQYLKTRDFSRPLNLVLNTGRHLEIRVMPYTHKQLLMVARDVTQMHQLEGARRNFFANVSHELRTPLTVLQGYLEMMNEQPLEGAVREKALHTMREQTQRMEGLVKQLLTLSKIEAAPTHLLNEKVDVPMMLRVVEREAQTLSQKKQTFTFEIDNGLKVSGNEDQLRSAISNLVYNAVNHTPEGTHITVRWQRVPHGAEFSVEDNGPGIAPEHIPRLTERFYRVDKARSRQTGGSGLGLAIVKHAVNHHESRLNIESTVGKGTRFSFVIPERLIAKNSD
Assay: two-hybrid; bacterial two-hybrid: T25 and T18 domains of B. pertussis CyaA fused N- or C-terminally; E. coli reporter strain DHM1 spotted on agar plates with X-Gal, blue colonies

B1: YjiS from E. coli, bacterial two-hybrid fusion (protein, UniProt P39390 1-54)
chain: MEFHENRAKAPFIGLVQLWQAVRRWRRQMQTRRVLQQMSDERLKDIGLRREDVE
**Q.** For B1, which binding is on record?
**A.** binds
